This passage reports binding results from paper PMC3416860, “TC10 Is Regulated by Caveolin in 3T3-L1 Adipocytes” (PLoS ONE, 2012).

Protein sequences, listed by entry. Tags and fused reporters are not part of them.
UniProt P17081: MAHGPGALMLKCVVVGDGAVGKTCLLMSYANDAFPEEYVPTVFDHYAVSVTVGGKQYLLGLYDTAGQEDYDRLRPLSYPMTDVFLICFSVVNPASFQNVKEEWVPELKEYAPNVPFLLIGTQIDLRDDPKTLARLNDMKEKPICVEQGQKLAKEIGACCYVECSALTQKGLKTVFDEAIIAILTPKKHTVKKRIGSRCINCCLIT

The target in assay [1] is myc-Caveolin 1 wild-type (pKMyc-Caveolin 1) (UniProt Q03135). Nature of the assay: co-IP; COS-1 cells co-transfected with myc-Caveolin 1 and HA-TC10 plasmids; lysed in HNTG buffer (50 mM HEPES pH 7.4, 150 mM NaCl, 10% glycerol, 1% Triton X-100); immunoprecipitated with anti-myc antibodies and Protein A/G beads, blotted for HA.
The target in assay [2] is T1, GST-TC10 (human, UniProt P17081 1-205).
T1 construct: TC10 (RhoQ); Expression plasmid obtained from Dr. Ian Macara; Used as purified (with endogenous GDP) or preincubated with GDP or a nonhydrolyzable GTP analog; also called TC10-GDP; source: E. coli Rosetta-gami (DE3), purified (glutathione-agarose)
Nature of the assay: pull-down; GST-TC10 on glutathione-agarose beads, preincubated with nucleotides as indicated (GDP or a nonhydrolyzable GTP analog), used to precipitate proteins from a 3T3-L1 adipocyte lysate; blot with anti-Caveolin antibodies; only the target purified.

Assay [3] deals with T1, GST-TC10. Nature of the assay: pull-down; purified MBP-Caveolin 1(1-99) and GST-TC10 incubated with GDP overnight at 4 C; glutathione agarose 1 h, washed, eluted in SDS sample buffer; blots with anti-GST or anti-MBP; both purified.

Results are given in words; binding and its absence hold for the method and conditions named. For part of these data: In cells and extracts the contact can be indirect. Some entries that bind do so weakly or less than the wild type.

As to “HA-TC10 wild-type (pKH3-TC10), in COS-1 cells (from UniProt P17081 1-205)”, in assay [1], the binding entry is listed as “binds”.

B1: Caveolin 1, endogenous in 3T3-L1 adipocytes (natural protein, mouse (endogenous in 3T3-L1), UniProt P49817 1-178, looked up)
chain: MSGGKYVDSEGHLYTVPIREQGNIYKPNNKAMADEVTEKQVYDAHTKEIDLVNRDPKHLNDDVVKIDFEDVIAEPEGTHSFDGIWKASFTTFTVTKYWFYRLLSTIFGIPMALIWGIYFAILSFLHIWAVVPCIKSFLIEIQCISRVYSIYVHTFCDPLFEAIGKIFSNIRISTQKEI
notes: Caveolin 1, endogenous, detected with anti-Caveolin antibodies; source: endogenous, 3T3-L1 adipocyte lysate
Consider B1, for which the binding result in the assay with GST-TC10 [2] is “binds”.

B2: MBP-Caveolin 1(1-99) (domain or fragment, UniProt Q03135 1-99, looked up)
chain: MSGGKYVDSEGHLYTVPIREQGNIYKPNNKAMADELSEKQVYDAHTKEIDLVNRDPKHLNDDVVKIDFEDVIAEPEGTHSFDGIWKASFTTFTVTKYWF
notes: Caveolin 1, the first 99 amino acids; The vector may add further tags and a TEV site; source: E. coli Rosetta-gami (DE3), purified (amylose resin)
Take B2: in the assay with GST-TC10 [3], the binding result is “binds”.
